Among the data in PMC5562746 are binding values, retold here.

In assay [1] the target is GST-tagged Plk1, C-terminal fragment containing PBD (human). As to the kind of experiment: pull-down; GST-tagged Plk1 constructs bound to glutathione-Sepharose beads incubated with mitotic cell lysates; washes with lysis buffer containing 500 mM and 150 mM NaCl; immunoblotting; only the target purified.
For assay [2], the target named is GST-tagged Plk1, N-terminal fragment (human). Described as above.
Assay [3] deals with microtubules stabilized by Taxol (human (endogenous in HeLa)). As to the kind of experiment: co-sedimentation; microtubule-pelleting assay: mitotic HeLa cells lysed in PEM buffer with 20 uM Taxol, 1% NP-40 and 1 mM GTP, pellet and supernatant immunoblotted; with or without BI-2536 or reversine. (In western blotting, separated proteins are transferred to a membrane and probed.)

These are yes or no findings as the source states them, for the method shown. In cells and extracts the contact can be indirect. For part of these data: A result given as binding can be weak or reduced; the word gives no strength.

B1: Mps1 (endogenous) (protein, UniProt P33981 1-857)
chain: MESEDLSGRELTIDSIMNKVRDIKNKFKNEDLTDELSLNKISADTTDNSGTVNQIMMMANNPEDWLSLLLKLEKNSVPLSDALLNKLIGRYSQAIEALPPDKYGQNESFARIQVRFAELKAIQEPDDARDYFQMARANCKKFAFVHISFAQFELSQGNVKKSKQLLQKAVERGAVPLEMLEIALRNLNLQKKQLLSEEEKKNLSASTVLTAQESFSGSLGHLQNRNNSCDSRGQTTKARFLYGENMPPQDAEIGYRNSLRQTNKTKQSCPFGRVPVNLLNSPDCDVKTDDSVVPCFMKRQTSRSECRDLVVPGSKPSGNDSCELRNLKSVQNSHFKEPLVSDEKSSELIITDSITLKNKTESSLLAKLEETKEYQEPEVPESNQKQWQSKRKSECINQNPAASSNHWQIPELARKVNTEQKHTTFEQPVFSVSKQSPPISTSKWFDPKSICKTPSSNTLDDYMSCFRTPVVKNDFPPACQLSTPYGQPACFQQQQHQILATPLQNLQVLASSSANECISVKGRIYSILKQIGSGGSSKVFQVLNEKKQIYAIKYVNLEEADNQTLDSYRNEIAYLNKLQQHSDKIIRLYDYEITDQYIYMVMECGNIDLNSWLKKKKSIDPWERKSYWKNMLEAVHTIHQHGIVHSDLKPANFLIVDGMLKLIDFGIANQMQPDTTSVVKDSQVGTVNYMPPEAIKDMSSSRENGKSKSKISPKSDVWSLGCILYYMTYGKTPFQQIINQISKLHAIIDPNHEIEFPDIPEKDLQDVLKCCLKRDPKQRISIPELLAHPYVQIQTHPVNQMAKGTTEEMKYVLGQLVGLNSPNSILKAAKTLYEHYSGGESHNSSSSKTFEKKRGKK
Turning to B1, the binding result is recorded as “no binding” in assay [1], “no binding” in assay [2] and “binds” in assay [3].
